Source: article PMC12607714

Sequences of proteins named here, by UniProt entry; tags and fusion partners are left off. A change or cut given only in a name is not applied to a line headed by its entry.
UniProt A0A509APB6: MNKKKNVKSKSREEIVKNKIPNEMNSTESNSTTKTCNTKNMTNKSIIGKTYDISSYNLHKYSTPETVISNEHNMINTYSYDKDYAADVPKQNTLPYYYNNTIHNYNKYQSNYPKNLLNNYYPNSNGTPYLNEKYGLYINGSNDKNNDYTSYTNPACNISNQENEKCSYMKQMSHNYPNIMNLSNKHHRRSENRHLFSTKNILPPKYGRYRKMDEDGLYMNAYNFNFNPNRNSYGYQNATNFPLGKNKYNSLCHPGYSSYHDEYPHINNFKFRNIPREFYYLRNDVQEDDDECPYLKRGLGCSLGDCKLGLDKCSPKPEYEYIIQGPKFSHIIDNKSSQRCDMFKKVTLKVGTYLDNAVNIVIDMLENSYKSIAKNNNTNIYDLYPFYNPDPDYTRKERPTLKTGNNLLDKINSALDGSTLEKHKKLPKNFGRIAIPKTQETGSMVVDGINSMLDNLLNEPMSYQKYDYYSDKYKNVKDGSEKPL
UniProt A0A509AJI6: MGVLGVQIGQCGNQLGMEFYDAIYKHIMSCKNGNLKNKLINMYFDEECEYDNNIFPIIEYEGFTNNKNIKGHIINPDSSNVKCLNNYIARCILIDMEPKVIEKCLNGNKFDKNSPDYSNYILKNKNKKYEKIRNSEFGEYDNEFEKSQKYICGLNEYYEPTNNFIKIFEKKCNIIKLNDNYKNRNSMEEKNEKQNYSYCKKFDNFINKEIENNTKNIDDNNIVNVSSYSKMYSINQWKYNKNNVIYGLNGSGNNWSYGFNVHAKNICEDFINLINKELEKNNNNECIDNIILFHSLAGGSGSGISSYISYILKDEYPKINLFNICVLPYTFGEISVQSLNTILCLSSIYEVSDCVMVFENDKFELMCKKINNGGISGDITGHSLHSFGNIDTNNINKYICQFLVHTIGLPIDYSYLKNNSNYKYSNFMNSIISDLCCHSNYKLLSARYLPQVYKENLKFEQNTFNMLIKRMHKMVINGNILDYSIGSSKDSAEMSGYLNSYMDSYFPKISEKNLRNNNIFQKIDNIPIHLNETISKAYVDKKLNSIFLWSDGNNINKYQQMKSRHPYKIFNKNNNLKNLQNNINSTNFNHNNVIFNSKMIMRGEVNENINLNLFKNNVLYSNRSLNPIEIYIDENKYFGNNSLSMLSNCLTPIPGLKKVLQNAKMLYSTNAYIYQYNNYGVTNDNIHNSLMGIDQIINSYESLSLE

Legend:
[1] = biological target: TubD-Myc-His (P. berghei δ-tubulin, Myc-His-tagged) (Plasmodium berghei); assay: co-IP; reciprocal: Flag-IMCp co-expressed with TubD-Myc-His or ISC1-Myc-His in HEK293T; lysate on anti-Myc beads, overnight at 4°C, washes with PBS-T; blots with anti-Flag and anti-Myc
[2] = biological target: ISC1-Myc-His (P. berghei inner membrane suture protein 1, Myc-His-tagged) (Plasmodium berghei); assay: as above
[3] = biological target: Flag-tagged IMCp domain (K134-K228) of PbIMC1j (Plasmodium berghei); assay: co-IP; Flag-IMCp co-expressed with TubD-Myc-His or ISC1-Myc-His in HEK293T; lysate on Flag-conjugated beads (IgG-conjugated beads as control), overnight at 4°C, washes with PBS-T; blots with anti-Myc and anti-Flag

| binding [1] | binding [2] | binding [3] | Substance |
| --- | --- | --- | --- |
| binds | binds | – | Flag-tagged IMCp domain (K134-K228) of PbIMC1j (from UniProt A0A509AP25) (domain or fragment) |
| – | – | binds | ISC1-Myc-His (P. berghei inner membrane suture protein 1, Myc-His-tagged) (from UniProt A0A509APB6) |
| – | – | binds | TubD-Myc-His (P. berghei δ-tubulin, Myc-His-tagged) (from UniProt A0A509AJI6) |

No constants are given. Whether binding was seen depends on the method and setting. In cells and extracts the contact can be indirect. Binding can be weak; no strength is given.
